Data: the supplement of paper PMC7580552
Structures can show the parent of a compound that is named as a salt. The list shows a part of the results. Plates or batches differ in their baseline, so values are only roughly comparable.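 A K-12 lab model strain is cultured statically in 96-well plates; biofilm is measured as the absorbance of crystal violet stain retained in the wells. Drugs counted as candidate specific biofilm blockers if they strongly reduced staining while slowing planktonic growth by under 70%.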

Tested on: Escherichia coli W3110
Experiment: biofilm formation (crystal violet staining) relative to untreated control; higher = more biofilm
Details: 10 µM; 20-24 h; 30 °C; TB

SMILES	biofilm formation [%]
Cc1ccccc1C(OCCN(C)C)c1ccccc1 (centres undefined) [Orphenadrine hydrochloride]	93
CN(C)CCOC(c1ccc(Cl)cc1)c1ccccn1 (centres undefined) [Carbinoxamine maleate salt]	73
O=C1CCc2ccc(OCCCCN3CCN(c4cccc(Cl)c4Cl)CC3)cc2N1 [Aripiprazole]	78
NC(=O)NC1NC(=O)NC1=O (centres undefined) [Allantoin]	84
COC(=O)C1=C(C)NC(C)=C(C(=O)OCC(C)C)C1c1ccccc1[N+](=O)[O-] (centres undefined) [Nisoldipine]	51
COC(=O)C1=C(C)NC(C)=C(C(=O)OCCN(C)Cc2ccccc2)C1c1cccc([N+](=O)[O-])c1 (centres undefined) [Nicardipine hydrochloride]	69
CN1CCN(c2c(F)cc3c(=O)c(C(=O)O)cn4c3c2SCC4)CC1 [Rufloxacin]	6
CN1CCC[C@@H]1CCO[C@](C)(c1ccccc1)c1ccc(Cl)cc1 [Clemastine fumarate]	55
CCOc1ccc(NC(C)=O)cc1 [Phenacetin]	64
CC(C(=O)O)c1ccc(C(=O)c2cccs2)cc1 (centres undefined) [Suprofen]	59
COc1cc2ncnc(Nc3ccc(F)c(Cl)c3)c2cc1OCCCN1CCOCC1 [Gefitinib]	72
CCCCC[C@H](O)/C=C/[C@H]1[C@H](O)CC(=O)[C@@H]1CCCCCCC(=O)O [Alprostadil]	73
CCN1CCC[C@H]1CNC(=O)c1c(O)c(Cl)cc(Cl)c1OC [Raclopride]	110
CC[C@@H]([C@H](C)O)n1ncn(-c2ccc(N3CCN(c4ccc(OC[C@@H]5CO[C@@](Cn6cncn6)(c6ccc(F)cc6F)C5)cc4)CC3)cc2)c1=O [Posaconazole]	42
CN[C@@H]1[C@H](O[C@H]2[C@H](O[C@H]3[C@H](O)[C@@H](O)[C@H](NC(=N)N)[C@@H](O)[C@@H]3NC(=N)N)O[C@@H](C)[C@]2(O)CO)O[C@@H](CO)[C@H](O)[C@H]1O [Dihydrostreptomycin sulfate]	45
NCc1ccc(S(N)(=O)=O)cc1 [Mafenide hydrochloride]	50
CCc1oc2ccccc2c1C(=O)c1cc(Br)c(O)c(Br)c1 [Benzbromarone]	81
CC/C(=C(\c1ccccc1)c1ccc(OCCN(C)C)cc1)c1ccccc1 [Tamoxifen citrate]	51
C#C[C@]1(O)CC[C@H]2[C@@H]3CCC4=C(CCC(=O)C4)[C@H]3CC[C@@]21C [Norethynodrel]	79
NS(=O)(=O)c1cc2c(cc1Cl)NC(CC1CCCC1)NS2(=O)=O (centres undefined) [Cyclopenthiazide]	62
CC(C)(C)NCC(O)c1cc(O)cc(O)c1 (centres undefined) [Terbutaline hemisulfate]	75
CC[N+](CC)(CC)CCOc1cccc(OCC[N+](CC)(CC)CC)c1OCC[N+](CC)(CC)CC [Gallamine triethiodide]	81
CCOC(=O)[N-]c1c[n+](N2CCOCC2)no1 [Molsidomine]	76
O=C(O)[C@H]1/C(=C/CO)O[C@@H]2CC(=O)N21 [Clavulanate potassium salt]	49
O=C(OCCOCCO)c1ccccc1Nc1cccc(C(F)(F)F)c1 [Etofenamate]	76

SMILES	biofilm formation [%]
Cc1cnc(C(=O)O)c[n+]1[O-] [Acipimox]	76
COc1ccc(CN2CCN(C(c3ccc(F)cc3)c3ccc(F)cc3)CC2)c(OC)c1OC [Lomerizine hydrochloride]	60
COc1ccc(C(=O)c2ccccc2O)c(O)c1 [Dioxybenzone]	55
CC(C)(C)NC[C@H](O)COc1ccccc1C1CCCC1 [Penbutolol sulfate]	79
Nc1nc2[nH]cc(CCc3ccc(C(=O)N[C@@H](CCC(=O)O)C(=O)O)cc3)c2c(=O)[nH]1 [Pemetrexed disodium]	87
CN(C)CCCN1c2ccccc2Sc2ccc(Cl)cc21 [Chlorpromazine hydrochloride]	74
CCOc1ccccc1OC(c1ccccc1)C1CNCCO1 (centres undefined) [Reboxetine mesylate]	98
C[C@@H]1C[C@H]2[C@@H]3C[C@H](F)C4=CC(=O)C=C[C@]4(C)[C@@]3(F)[C@@H](O)C[C@]2(C)[C@@]1(O)C(=O)COC(=O)C(C)(C)C [Flumethasone pivalate]	75
Nc1ccc(S(=O)(=O)Nc2ccccn2)cc1 [Sulfapyridine]	34
Nc1ccn([C@@H]2O[C@H](CO)[C@@H](O)[C@@H]2O)c(=O)n1 [Cytarabine]	83
COc1ccnc(C[S+]([O-])c2nc3cc(OC(F)F)ccc3[nH]2)c1OC (centres undefined) [Pantoprazole sodium]	72
CC(C)(C)c1ccc(C(O)CCCN2CCC(C(O)(c3ccccc3)c3ccccc3)CC2)cc1 (centres undefined) [Terfenadine]	40
CC(COc1ccccc1)NC(C)C(O)c1ccc(O)cc1 (centres undefined) [Isoxsuprine hydrochloride]	75
CCCCN1CCCCC1C(=O)Nc1c(C)cccc1C (centres undefined) [Bupivacaine hydrochloride]	65
CCOC(=O)NNc1nncc2ccccc12 [Todralazine hydrochloride]	105
CCN(CCO)CCCC(C)Nc1ccnc2cc(Cl)ccc12 (centres undefined) [Hydroxychloroquine sulfate]	89
COc1ccc(CC2c3cc(OC)c(OC)cc3CC[N+]2(C)CCC(=O)OCCCCCOC(=O)CC[N+]2(C)CCc3cc(OC)c(OC)cc3C2Cc2ccc(OC)c(OC)c2)cc1OC (centres undefined) [Atracurium besylate]	85
CC(=O)[C@H]1CC[C@H]2[C@@H]3CC=C4C[C@@H](O)CC[C@]4(C)[C@H]3CC[C@]12C [Pregnenolone]	72
CN(C)[C@@H]1C(O)=C(C(N)=O)C(=O)[C@@]2(O)C(O)=C3C(=O)c4c(O)cccc4[C@@](C)(O)[C@H]3[C@H](O)[C@@H]12 [Oxytetracycline dihydrate]	17
CC/C(=C(/CC)c1ccc(O)cc1)c1ccc(O)cc1 [Diethylstilbestrol]	58
CC1=C(/C=C/C(C)=C/C=C/C(C)=C\C(=O)O)C(C)(C)CCC1 [Isotretinoin]	45
CSc1ccc2c(c1)N(CCC1CCCCN1C)c1ccccc1S2 (centres undefined) [Thioridazine hydrochloride]	92
Cc1cc(-c2ccccc2)nnc1NCCN1CCOCC1 [Minaprine dihydrochloride]	70
NC(N)=Nc1nc(CSCC/C(N)=N/S(N)(=O)=O)cs1 [Famotidine]	54
COc1cc(-c2ccc(=O)[nH]n2)ccc1OC(F)F [Zardaverine]	76

SMILES	biofilm formation [%]
CCCCC1(COC(=O)CCC(=O)O)C(=O)N(c2ccccc2)N(c2ccccc2)C1=O [Suxibuzone]	72
COc1cc(NC(C)CCCN)c2ncccc2c1 (centres undefined) [Primaquine diphosphate]	99
CCCCNc1c(C(=O)OCC)c(C)nc2c1cnn2CC [Tracazolate hydrochloride]	85
C[C@]12CC[C@@H]3c4ccc(OS(=O)(=O)O)cc4CC[C@H]3[C@@H]1CCC2=O [Estropipate]	52
COc1cccc(OC)c1C(=O)N[C@@H]1C(=O)N2[C@@H]1SC(C)(C)[C@@H]2C(=O)O [Methicillin sodium]	57
Cc1ccc(S(=O)(=O)NC(=O)NN2CCCCCC2)cc1 [Tolazamide]	87
CCOC(=O)c1ccc(N)cc1 [Benzocaine]	95
OC(CCCN1CCCCC1)(c1ccccc1)c1ccccc1 [Diphenidol hydrochloride]	56
CCN(CC)CCOC(=O)C(c1ccccc1)c1ccccc1 [Adiphenine hydrochloride]	87
CCN(CC)CCNc1ccc(CO)c2sc3ccccc3c(=O)c12 [Hycanthone]	52
O=C(COc1ccc(Cl)cc1)N1CCN(Cc2ccc3c(c2)OCO3)CC1 [Fipexide hydrochloride]	56
CNC(C)CCC=C(C)C (centres undefined) [Isometheptene mucate]	72
CN(Cc1cnc2nc(N)nc(N)c2n1)c1ccc(C(=O)N[C@@H](CCC(=O)O)C(=O)O)cc1 (racemic) [Amethopterin (R,S)]	66
Cc1ccsc1/C=C/C1=NCCCN1C [Morantel tartrate]	92
CN(C)c1ccc(O)c2c1C[C@H]1C[C@H]3[C@H](N(C)C)C(O)=C(C(N)=O)C(=O)[C@@]3(O)C(O)=C1C2=O [Minocycline hydrochloride]	18
CC(C(=O)O)c1ccc(C(=O)c2ccccc2)s1 (centres undefined) [Tiaprofenic acid]	79
CC(=O)N(CC(O)CN(C(C)=O)c1c(I)c(C(=O)NCC(O)CO)c(I)c(C(=O)NCC(O)CO)c1I)c1c(I)c(C(=O)NCC(O)CO)c(I)c(C(=O)NCC(O)CO)c1I (centres undefined) [Iodixanol]	50
c1ccc(CN(CC2=NCCN2)c2ccccc2)cc1 [Antazoline hydrochloride]	55
CN(C)CC/C=C1/c2ccccc2COc2ccc(CC(=O)O)cc21 [Olopatadine hydrochloride]	62
C=CCSCC1Nc2cc(Cl)c(S(N)(=O)=O)cc2S(=O)(=O)N1 (centres undefined) [Althiazide]	98
CCCOc1ccc(C(=O)OCCN(CC)CC)cc1N [Proparacaine hydrochloride]	96
CC(CN(C)C)C(C)(O)Cc1ccc(Cl)cc1 (centres undefined) [Clobutinol hydrochloride]	78
C[C@]1(Cn2ccnn2)[C@H](C(=O)O)N2C(=O)C[C@H]2S1(=O)=O [Tazobactam]	54
CC[C@@H](CO)NCCN[C@@H](CC)CO [Ethambutol dihydrochloride]	75

Pulled by structure from the list above (4):
SMILES	biofilm formation [%]
Nc1nc2[nH]cc(CCc3ccc(C(=O)N[C@@H](CCC(=O)O)C(=O)O)cc3)c2c(=O)[nH]1 [Pemetrexed disodium]	87
CN[C@@H]1[C@H](O[C@H]2[C@H](O[C@H]3[C@H](O)[C@@H](O)[C@H](NC(=N)N)[C@@H](O)[C@@H]3NC(=N)N)O[C@@H](C)[C@]2(O)CO)O[C@@H](CO)[C@H](O)[C@H]1O [Dihydrostreptomycin sulfate]	45
CCOc1ccccc1OC(c1ccccc1)C1CNCCO1 (centres undefined) [Reboxetine mesylate]	98
CN(C)[C@@H]1C(O)=C(C(N)=O)C(=O)[C@@]2(O)C(O)=C3C(=O)c4c(O)cccc4[C@@](C)(O)[C@H]3[C@H](O)[C@@H]12 [Oxytetracycline dihydrate]	17
